Assay results: the supplement of paper PMC9938546
Where a name gives a salt, the structure may show the parent alone. Some of the results follow. Plates or batches differ in their baseline, so values are only roughly comparable.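 HCT116-GFP, a KRAS-mutant, microsatellite-unstable human colorectal cancer line, constantly expresses green fluorescent protein; immune cells were from healthy donors. Cancer cell survival was tracked by live-cell imaging of green fluorescence, and activated immune cells by themselves reduced survival to roughly half.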

Tested on: HCT116-GFP
Test: HCT116-GFP viability (GFP intensity) relative to untreated HCT116-GFP monoculture control, co-culture with activated PBMCs; higher = less cancer cell killing
Settings: culture: co-culture with anti-CD3/IL2 activated PBMCs 1:1; 10 µM; 72 h

SMILES	HCT116-GFP viability [%]
Cc1cccc(CN2CCN(C(c3ccccc3)c3ccc(Cl)cc3)CC2)c1 (centres undefined) [Meclozine dihydrochloride]	65.6
O=C(O)CCC(=O)Nc1ccc(S(=O)(=O)Nc2nccs2)cc1 [Succinylsulfathiazole]	68.3
COc1cnc(NS(=O)(=O)c2ccc(N)cc2)nc1 [Sulfameter]	74
CCCCC(C)(O)C/C=C/[C@H]1[C@H](O)CC(=O)[C@@H]1CCCCCCC(=O)OC (mixture of isomers) [Misoprostol]	38.9
CNCCC(Oc1ccccc1OC)c1ccccc1 (centres undefined) [Nisoxetine hydrochloride]	83.4
COc1ccccc1O [Guaiacol]	26.2
CCOC(=O)C1=C[C@]2(CC)CCCN3CCc4c(n1c1ccccc41)[C@@H]32 [Vinpocetine]	76.1
COc1ccc(-c2cc(=O)c3c(O)cc(O[C@@H]4O[C@H](CO[C@@H]5O[C@@H](C)[C@H](O)[C@@H](O)[C@H]5O)[C@@H](O)[C@H](O)[C@H]4O)cc3o2)cc1O [Diosmin]	56.9
CCCCCCCN(CC)CCCC(O)c1ccc(NS(C)(=O)=O)cc1 (centres undefined) [Ibutilide fumarate]	79
c1ccc2[nH]c(-c3cscn3)nc2c1 [Tiabendazole]	48.1
CC1CS(=O)(=O)CCN1/N=C/c1ccc([N+](=O)[O-])o1 (centres undefined) [Nifurtimox]	25.4
CN1CC2c3ccccc3Oc3ccc(Cl)cc3C2C1 (centres undefined) [Asenapine maleate]	63.6
OCc1cc(C(O)CNCCCCCCOCCCCc2ccccc2)ccc1O (centres undefined) [Salmeterol]	80.5
O=C(O)Cc1sc(-c2ccccc2)nc1-c1ccc(Cl)cc1 [Fentiazac]	52.9
CC(=O)OCC(=O)[C@@]12N=C(C)O[C@@H]1C[C@H]1[C@@H]3CCC4=CC(=O)C=C[C@]4(C)[C@H]3[C@@H](O)C[C@@]12C [Deflazacort]	82.5
CC(=O)Nc1ccc(CC(=O)O)cc1 [Actarit]	57.6
Cc1nc2n(c(=O)c1CCN1CCC(c3noc4cc(F)ccc34)CC1)CCCC2 [Risperidone]	45.5
CNCCC(Oc1ccc(C(F)(F)F)cc1)c1ccccc1 (centres undefined) [Fluoxetine hydrochloride]	69.4
CCN1CC(CCN2CCOCC2)C(c2ccccc2)(c2ccccc2)C1=O (centres undefined) [Doxapram hydrochloride]	49.7
O=C(O)c1cc(-c2ccc(F)cc2F)ccc1O [Diflunisal]	38
CCCCNC(=O)NS(=O)(=O)c1ccc(C)cc1 [Tolbutamide]	40.4
CC(=O)[C@H]1CC[C@H]2[C@@H]3C[C@H](C)C4=CC(=O)CC[C@]4(C)[C@H]3[C@@H](O)C[C@]12C [Medrysone]	87.3
CCOC(=O)OC(C)OC1=C(C(=O)Nc2ccccn2)N(C)S(=O)(=O)c2ccccc21 (centres undefined) [Ampiroxicam]	10.2
CCn1cc(C(=O)O)c(=O)c2cnc(N3CCCC3)nc21 [Piromidic acid]	73.8
O=S(=O)(O)CCS [Mesna]	33.4

SMILES	HCT116-GFP viability [%]
CC(C)(C)NC[C@H](O)c1ccc(O)c(CO)c1 [Levalbuterol hydrochloride]	52.2
COc1ccc2cc([C@@H](C)C(=O)O)ccc2c1 [(R) -Naproxen sodium salt]	64
Nc1nc(=O)c2c([nH]1)NC[C@@H](CNc1ccc(C(=O)N[C@@H](CCC(=O)O)C(=O)O)cc1)N2C=O [Folinic acid calcium salt]	67.8
CC1(C)NC(=O)N(c2ccc([N+](=O)[O-])c(C(F)(F)F)c2)C1=O [Nilutamide]	70
COC(=O)[C@@H]1[C@H]2C[C@H]3c4[nH]c5ccccc5c4CCN3C[C@@H]2CC[C@@H]1O [Yohimbine hydrochloride]	61.3
CCCCC(CC)CNC(=N)NC(=N)NCCCCCCNC(=N)NC(=N)NCC(CC)CCCC (centres undefined) [Alexidine dihydrochloride]	0.0617
CCCCOc1cc(C(=O)NCCN(CC)CC)c2ccccc2n1 [Dibucaine]	60.2
O=C1CCc2cc(OCCCCc3nnnn3C3CCCCC3)ccc2N1 [Cilostazol]	48.6
CCS(=O)(=O)CCn1c([N+](=O)[O-])cnc1C [Tinidazole]	77.3
CCC1=C(C)CN(C(=O)NCCc2ccc(S(=O)(=O)NC(=O)N[C@H]3CC[C@H](C)CC3)cc2)C1=O [Glimepiride]	94.5
O=C1NCN(c2ccccc2)C12CCN(CCCC(c1ccc(F)cc1)c1ccc(F)cc1)CC2 [Fluspirilen]	44.7
CC(C)(C)C(=O)OCOC(=O)[C@@H]1N2C(=O)[C@@H](NC(=O)[C@H](N)c3ccccc3)[C@H]2SC1(C)C [Pivampicillin]	38.1
N=C(N)NC(=O)c1nc(Cl)c(N)nc1N [Amiloride hydrochloride dihydrate]	42
CCCCOC(=O)c1ccc(N)cc1 [Butamben]	70.8
CCOc1ccccc1OCC1CNCCO1 (centres undefined) [Viloxazine hydrochloride]	67
CC[C@H]1OC(=O)[C@H](C)[C@@H](O[C@H]2C[C@@](C)(OC)[C@@H](O)[C@H](C)O2)[C@H](C)[C@@H](O[C@@H]2O[C@H](C)C[C@H](N(C)C)[C@H]2O)[C@](C)(OC)C[C@@H](C)C(=O)[C@H](C)[C@@H](O)[C@]1(C)O [Clarithromycin]	33.6
N[C@@H]1CCCCN(c2c(F)cc3c(=O)c(C(=O)O)cn(C4CC4)c3c2Cl)C1 [Besifloxacin hydrochloride]	49.5
CCCCC1=NC2(CCCC2)C(=O)N1Cc1ccc(-c2ccccc2-c2nnn[nH]2)cc1 [Irbesartan]	23.3
CN[C@H](CC(C)C)C(=O)N[C@H]1C(=O)N[C@@H](CC(N)=O)C(=O)N[C@H]2C(=O)N[C@H]3C(=O)N[C@H](C(=O)N[C@H](C(=O)O)c4cc(O)cc(O)c4-c4cc3ccc4O)[C@H](O)c3ccc(c(Cl)c3)Oc3cc2cc(c3O[C@@H]2O[C@H](CO)[C@@H](O)[C@H](O)[C@H]2O[C@H]2C[C@](C)(N)[C@H](O)[C@H](C)O2)Oc2ccc(cc2Cl)[C@H]1O [Vancomycin hydrochloride]	45.7
CNS(=O)(=O)Cc1ccc2[nH]cc(CCN(C)C)c2c1 [Sumatriptan succinate]	51.2
NS(=O)(=O)c1cc2c(cc1Cl)N=CNS2(=O)=O [Chlorothiazide]	32.7
CCOC(=O)[C@H](CCc1ccccc1)N[C@@H](C)C(=O)N1[C@H](C(=O)O)C[C@@H]2CCC[C@@H]21 [Ramipril]	19.4
CCOc1ccc2c(c1)C(C)=CC(C)(C)N2 [Ethoxyquin]	71.9
NC(=O)c1ncn([C@@H]2O[C@H](CO)[C@@H](O)[C@H]2O)n1 [Ribavirin]	21.2
CC(C)COCC(CN(Cc1ccccc1)c1ccccc1)N1CCCC1 (centres undefined) [Bepridil hydrochloride]	52.9

Entries shown so far that have a tert-butyl group:
SMILES	HCT116-GFP viability [%]
CC(C)(C)NC[C@H](O)c1ccc(O)c(CO)c1 [Levalbuterol hydrochloride]	52.2
CC(C)(C)C(=O)OCOC(=O)[C@@H]1N2C(=O)[C@@H](NC(=O)[C@H](N)c3ccccc3)[C@H]2SC1(C)C [Pivampicillin]	38.1

Some values from above.
HCT116-GFP viability [%] with `CCCCC(CC)CNC(=N)NC(=N)NCCCCCCNC(=N)NC(=N)NCC(CC)CCCC` (centres undefined) [Alexidine dihydrochloride] reads 0.0617
HCT116-GFP viability [%] with `O=C1NCN(c2ccccc2)C12CCN(CCCC(c1ccc(F)cc1)c1ccc(F)cc1)CC2` [Fluspirilen] reads 44.7

More compounds

SMILES	HCT116-GFP viability [%]
NS(=O)(=O)c1cc(C(=O)O)c(NCc2ccco2)cc1Cl [Furosemide]	46.4
COc1cc(C(=O)NS(=O)(=O)c2ccccc2C)ccc1Cc1cn(C)c2ccc(NC(=O)OC3CCCC3)cc12 [Zafirlukast]	50.2
Cc1cc(C2CCCCC2)n(O)c(=O)c1 [Ciclopirox ethanolamine]	6.7
Cc1cccc(C)c1NC(=O)C1CCCCN1C (centres undefined) [Mepivacaine hydrochloride]	61.6
Cc1ncc([N+](=O)[O-])n1CC(O)CCl (centres undefined) [Ornidazole]	32
CN1C(C(=O)Nc2ccccn2)=C(O)c2sccc2S1(=O)=O [Tenoxicam]	47.4
C[C@]12CC[C@H]3C(=CCc4cc(O)ccc43)[C@@H]1CCC2=O [Equilin]	79.8
C=C[C@H]1CN2CC[C@H]1C[C@@H]2[C@@H](O)c1ccnc2ccc(OC)cc12 [Quinidine hydrochloride monohydrate]	81.5
CS(=O)(=O)c1ccc(C2=C(c3ccccc3)C(=O)OC2)cc1 [Rofecoxib]	35.9
Cn1c(=O)c2[nH]cnc2n(C)c1=O [Aminophylline]	65.3
Cc1[nH]c(=O)c(C#N)cc1-c1ccncc1 [Milrinone]	32
CN(C)CCC=C1c2ccccc2CCc2ccccc21 [Amitryptiline hydrochloride]	57.6
Cc1ccnc2c1NC(=O)c1cccnc1N2C1CC1 [Nevirapine]	53.5
CCN(CC)CCOC(=O)C(c1ccccc1)C1CCCCC1 (centres undefined) [Drofenine hydrochloride]	90.3
COCC1=C(C(=O)OC(C)OC(=O)OC(C)C)N2C(=O)[C@@H](NC(=O)/C(=N\OC)c3csc(N)n3)[C@H]2SC1 (some centres undefined) [Cefpodoxime proxetil]	36.9
COc1cc(Cc2cnc(N)nc2N)cc(OC)c1OC [Trimethoprim]	35.3
O=C(CCCN1CCC(O)(c2ccc(Br)cc2)CC1)c1ccc(F)cc1 [Bromperidol]	38.2
CO[C@@]1(NC(=O)Cc2cccs2)C(=O)N2C(C(=O)O)=C(COC(N)=O)CS[C@@H]21 [Cefoxitin sodium salt]	78.2
CC(=O)c1ccc2c(c1)N(CCCN1CCC(CCO)CC1)c1ccccc1S2 [Piperacetazine]	66.4
CCCCC(CC)CN1CN(CC(CC)CCCC)CC(C)(N)C1 (centres undefined) [Hexetidine]	38.9
COc1cc2c(cc1OC)C(=O)C(CC1CCN(Cc3ccccc3)CC1)C2 (centres undefined) [Donepezil hydrochloride]	43.4
N#CC(c1ccc(Cl)cc1)c1c(Cl)cc(-n2ncc(=O)[nH]c2=O)cc1Cl (centres undefined) [Diclazuril]	20.7
COc1cc(OC)c(C(=O)CCCN2CCCC2)c(OC)c1 [Buflomedil hydrochloride]	33.8
CN1CCC(=C2c3ccccc3CC(=O)c3sccc32)CC1 [Ketotifen fumarate]	57.7
